No constants are given. Whether binding was seen depends on the method and setting. In cells and extracts the contact can be indirect. Some results given as binding are weak or reduced against the parent protein; the word gives no strength. Sequences can lack the tags named with a protein.
Columns and labels:
Assay in all cases: co-IP
[1] = biological target: T1, Unc93b1 triple-alanine mutant of amino acids 273-275, 3xFLAG-tagged (mouse) (UniProt Q8VCW4)
T1 sequence: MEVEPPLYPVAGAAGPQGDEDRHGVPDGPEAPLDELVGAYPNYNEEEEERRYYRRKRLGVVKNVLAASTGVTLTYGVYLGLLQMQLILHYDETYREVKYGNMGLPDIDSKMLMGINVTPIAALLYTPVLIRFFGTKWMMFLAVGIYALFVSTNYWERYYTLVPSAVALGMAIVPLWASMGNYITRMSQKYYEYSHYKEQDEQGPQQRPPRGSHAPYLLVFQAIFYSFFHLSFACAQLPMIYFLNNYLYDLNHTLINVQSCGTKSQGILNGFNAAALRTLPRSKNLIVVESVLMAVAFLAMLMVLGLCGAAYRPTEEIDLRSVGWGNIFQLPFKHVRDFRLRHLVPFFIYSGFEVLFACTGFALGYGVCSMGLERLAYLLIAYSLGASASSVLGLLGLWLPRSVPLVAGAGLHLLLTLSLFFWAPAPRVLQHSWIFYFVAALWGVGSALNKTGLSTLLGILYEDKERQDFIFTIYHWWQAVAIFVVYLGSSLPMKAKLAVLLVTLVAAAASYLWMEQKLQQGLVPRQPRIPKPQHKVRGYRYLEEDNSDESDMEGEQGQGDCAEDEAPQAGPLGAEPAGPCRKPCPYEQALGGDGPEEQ

[2] = biological target: T2, Unc93b1 wildtype, 3xFLAG-tagged (mouse) (UniProt Q8VCW4)
T2 sequence: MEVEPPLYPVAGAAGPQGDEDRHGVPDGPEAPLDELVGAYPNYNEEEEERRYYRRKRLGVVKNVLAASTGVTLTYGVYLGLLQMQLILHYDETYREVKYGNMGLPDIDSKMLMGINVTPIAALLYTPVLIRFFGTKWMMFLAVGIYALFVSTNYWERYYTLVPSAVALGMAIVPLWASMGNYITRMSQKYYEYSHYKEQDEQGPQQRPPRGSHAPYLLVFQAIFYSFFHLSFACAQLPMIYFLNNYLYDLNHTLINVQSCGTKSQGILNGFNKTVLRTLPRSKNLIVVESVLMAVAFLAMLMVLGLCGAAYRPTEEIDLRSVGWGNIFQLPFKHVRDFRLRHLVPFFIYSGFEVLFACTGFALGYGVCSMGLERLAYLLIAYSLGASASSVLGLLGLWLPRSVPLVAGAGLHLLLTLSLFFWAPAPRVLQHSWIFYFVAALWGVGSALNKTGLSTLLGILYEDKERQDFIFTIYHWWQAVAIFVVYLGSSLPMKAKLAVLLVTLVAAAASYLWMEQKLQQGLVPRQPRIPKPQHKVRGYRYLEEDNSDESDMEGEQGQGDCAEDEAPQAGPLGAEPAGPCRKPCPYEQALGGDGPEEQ

[3] = biological target: T3, Unc93b1^K283A, 3xFLAG-tagged (mouse) (UniProt Q8VCW4)
T3 sequence: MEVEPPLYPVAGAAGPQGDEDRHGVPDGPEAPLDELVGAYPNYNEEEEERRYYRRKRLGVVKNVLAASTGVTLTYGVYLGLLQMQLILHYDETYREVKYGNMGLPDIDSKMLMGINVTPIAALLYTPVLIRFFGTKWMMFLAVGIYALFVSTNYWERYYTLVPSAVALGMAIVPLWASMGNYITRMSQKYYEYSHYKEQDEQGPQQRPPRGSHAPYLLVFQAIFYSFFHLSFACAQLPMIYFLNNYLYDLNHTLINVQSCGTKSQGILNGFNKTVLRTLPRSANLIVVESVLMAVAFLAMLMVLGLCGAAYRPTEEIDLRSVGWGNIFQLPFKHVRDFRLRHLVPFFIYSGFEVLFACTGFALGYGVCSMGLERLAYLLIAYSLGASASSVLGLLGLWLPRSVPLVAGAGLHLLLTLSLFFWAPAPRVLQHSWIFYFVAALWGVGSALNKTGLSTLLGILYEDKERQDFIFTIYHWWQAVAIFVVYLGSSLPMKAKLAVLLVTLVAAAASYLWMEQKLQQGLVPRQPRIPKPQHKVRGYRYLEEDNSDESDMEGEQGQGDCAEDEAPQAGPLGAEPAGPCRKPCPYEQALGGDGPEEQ

[4] = biological target: T4, Unc93b1^N284A, 3xFLAG-tagged (mouse) (UniProt Q8VCW4)
T4 sequence: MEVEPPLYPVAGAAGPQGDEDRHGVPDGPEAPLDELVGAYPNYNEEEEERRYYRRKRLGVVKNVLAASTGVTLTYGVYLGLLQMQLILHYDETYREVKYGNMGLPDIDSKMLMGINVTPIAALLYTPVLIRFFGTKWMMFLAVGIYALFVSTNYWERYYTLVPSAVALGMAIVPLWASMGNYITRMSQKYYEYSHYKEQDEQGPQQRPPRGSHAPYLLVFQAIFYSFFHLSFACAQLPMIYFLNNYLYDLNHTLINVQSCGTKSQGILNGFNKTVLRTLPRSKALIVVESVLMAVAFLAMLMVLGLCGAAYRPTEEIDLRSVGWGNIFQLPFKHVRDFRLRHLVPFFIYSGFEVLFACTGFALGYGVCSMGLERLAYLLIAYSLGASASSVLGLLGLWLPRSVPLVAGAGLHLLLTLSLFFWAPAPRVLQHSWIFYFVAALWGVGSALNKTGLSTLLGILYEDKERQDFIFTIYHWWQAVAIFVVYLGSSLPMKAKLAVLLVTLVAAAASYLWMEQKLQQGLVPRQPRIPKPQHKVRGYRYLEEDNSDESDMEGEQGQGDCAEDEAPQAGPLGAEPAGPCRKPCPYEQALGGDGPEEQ

binding [1]: binds | binding [2]: binds | binding [3]: binds | binding [4]: binds
B1: TLR9, HA-tagged (receptor, UniProt Q9EQU3 26-1032)
chain: LGTLPAFLPCELKPHGLVDCNWLFLKSVPRFSAAASCSNITRLSLISNRIHHLHNSDFVHLSNLRQLNLKWNCPPTGLSPLHFSCHMTIEPRTFLAMRTLEELNLSYNGITTVPRLPSSLVNLSLSHTNILVLDANSLAGLYSLRVLFMDGNCYYKNPCTGAVKVTPGALLGLSNLTHLSLKYNNLTKVPRQLPPSLEYLLVSYNLIVKLGPEDLANLTSLRVLDVGGNCRRCDHAPNPCIECGQKSLHLHPETFHHLSHLEGLVLKDSSLHTLNSSWFQGLVNLSVLDLSENFLYESITHTNAFQNLTRLRKLNLSFNYRKKVSFARLHLASSFKNLVSLQELNMNGIFFRLLNKYTLRWLADLPKLHTLHLQMNFINQAQLSIFGTFRALRFVDLSDNRISGPSTLSEATPEEADDAEQEELLSADPHPAPLSTPASKNFMDRCKNFKFTMDLSRNNLVTIKPEMFVNLSRLQCLSLSHNSIAQAVNGSQFLPLTNLQVLDLSHNKLDLYHWKSFSELPQLQALDLSYNSQPFSMKGIGHNFSFVTHLSMLQSLSLAHNDIHTRVSSHLNSNSVRFLDFSGNGMGRMWDEGGLYLHFFQGLSGLLKLDLSQNNLHILRPQNLDNLPKSLKLLSLRDNYLSFFNWTSLSFLPNLEVLDLAGNQLKALTNGTLPNGTLLQKLDVSSNSIVSVVPAFFALAVELKEVNLSHNILKTVDRSWFGPIVMNLTVLDVRSNPLHCACGAAFVDLLLEVQTKVPGLANGVKCGSPGQLQGRSIFAQDLRLCLDEVLSWDCFGLSLLAVAVGMVVPILHHLCGWDVWYCFHLCLAWLPLLARSRRSAQTLPYDAFVVFDKAQSAVADWVYNELRVRLEERRGRRALRLCLEDRDWLPGQTLFENLWASIYGSRKTLFVLAHTDRVSGLLRTSFLLAQQRLLEDRKDVVVLVILRPDAHRSRYVRLRQRLCRQSVLFWPQQPNGQGGFWAQLSTALTRDNRHFYNQNFCRGPTAE

— paper doi:10.1101/410092
